The record followed here is PubChem BioAssay AID1487 (National Center for Advancing Translational Sciences (NCATS), 2009).

Some of the results follow. Shown are side measurements of this screen, not its main read-out; they come without a call. Most of these compounds were active or inconclusive in the main read-out, so they are no random draw. Potencies come from curve fits of mixed quality, noted in brackets.

The nature of this test: qHTS Assay for Modulators of Lamin A Splicing. The note with it: HeLa LMNA splicing GFP/RFP minigene ratio, 48 h. The essentials:
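S3 HeLa stable clones carrying a lamin A-EGFP splicing minigene plus DsRed2 were seeded at 600 cells/well in Opti-MEM with 2% FBS, pin-dosed and incubated 48 h at 37°C. Acumen cytometry (488 nm) gave the GFP/RFP total-intensity ratio.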
A general note: In qHTS, concentration-response curves come from the screen itself.

[1] abbreviates: measured here: RFP viability control channel.
Setting [2] is: measured here: GFP splicing reporter channel.

Consider `Cc1c(C(c2ccccc2O)c2c(C)n(C)n(-c3ccccc3)c2=O)c(=O)n(-c2ccccc2)n1C`, for which the AC50 – broadly, the concentration giving half of the maximal activity seen – under setting [1] is 0.00891 µM [falling, full curve, poor fit].
For `CCCC(=O)OCCNc1cc(Sc2nc3ccccc3[nH]2)c2nonc2c1[N+](=O)[O-]`, the AC50 under setting [1] was 35.5 µM [rising, single point].
On to `COc1ccc(C(=O)Nc2ccccc2C(=O)NC(Cc2c[nH]c3ccccc23)C(=O)O)cc1` (stereo unspecified), for which the AC50 under setting [1] is 0.0447 µM [falling, full curve, poor fit].
For `O=C(/C(=C/O)N=Nc1ccccc1)c1ccncc1`, the AC50 under setting [1] was 14.1 µM [rising, single point].
On the same count and under the same terms, as for `Cc1nc(C(=O)Nc2cccc(Cl)c2)nn1-c1cc(OC(C)C)c(Cl)cc1Cl`, the figure is 12.6 µM [rising, partial curve].
With `CN1CCN(S(=O)(=O)c2cnccc2N2CCN(c3cccc(Cl)c3)CC2)CC1`, the AC50 was 14.1 µM [rising, partial curve] under setting [2] and 35.5 µM [rising, single point] under setting [1].
Take `COc1ccc(-c2csc(N(CC3CCCO3)C(=O)c3ccc(C)cc3)n2)cc1` (stereo unspecified): the AC50 under setting [1] was 28.2 µM [rising, single point].
Still for that read-out and setting: as for `O=C(Nc1ccncc1)c1ccc2c(c1)S(=O)(=O)c1ccccc1C2=O`, the figure is 17.8 µM [rising, single point].
Still for that read-out and setting: next, `O=C(Cn1cnc2c(cnn2-c2ccc(F)cc2)c1=O)N1CCCc2ccccc21`: 11.2 µM [rising, single point].
On to `Cc1ccc(N2C(=O)CC(Sc3ccccc3C(=O)O)C2=O)cc1C` (stereo unspecified), for which, under setting [2], the AC50 is 0.398 µM [falling, full curve, poor fit].
Regarding `Cc1ccc(-c2csc3n[nH]c(=S)n23)cc1`, the AC50 was 8.91 µM [falling, partial curve] under setting [2] and 12.6 µM [falling, partial curve] under setting [1].
Turning to `COc1ccccc1/C=C/C(=O)Nc1ccc2c(c1)CCC2`, the AC50 under setting [1] is 8.91 µM [rising, partial curve, poor fit].
Consider `COc1cc(/C=N/NC(=O)c2ccc(Cl)c(S(N)(=O)=O)c2)ccc1OCC(N)=O`, for which the AC50 under setting [1] was 0.708 µM [falling, full curve, poor fit].
On the same count and under the same terms, as for `CCCCOC(=O)Oc1ccc2c(=O)c(Oc3cccc(C)c3)coc2c1`, the figure is 0.0112 µM [falling, full curve, poor fit].
On to `Cc1ccc2nc(SCC(=O)Nc3cccc(S(=O)(=O)N(C)C)c3)[nH]c2c1`, for which the AC50 was 11.2 µM [rising, partial curve, poor fit] under setting [2] and 12.6 µM [rising, partial curve] under setting [1].
As to `O=C(c1ccco1)N1CCN(C(c2ccccc2Cl)c2nnnn2Cc2cccs2)CC1` (stereo unspecified), the AC50 under setting [2] is 20 µM [falling, partial curve, poor fit].
With `Clc1ccc(-c2csc(Nc3ccccc3)[n+]2Cc2ccco2)c(Cl)c1`, the AC50 under setting [1] was 7.08 µM [rising, partial curve].
For `COc1ccc(C(=O)NCc2ccc3c(c2)OCO3)cc1S(=O)(=O)N(C)Cc1ccccc1`, the AC50 under setting [1] is 11.2 µM [rising, partial curve, poor fit].
Consider `COc1ccccc1-c1cc(NC(=O)COc2ccc(C)c(C)c2)n(-c2ccccc2)n1`, for which the concentration at half-maximal activity (AC50) by setting is: under setting [2], 0.316 µM [rising, single point]; under setting [1], 10 µM [falling, partial curve, poor fit].
With `COc1ccccc1NC(=O)C1CCN(S(=O)(=O)c2cn(C)cn2)CC1`, the AC50 under setting [2] was 1.41 µM [falling, partial curve] and the AC50 under setting [1] is 1.26 µM [falling, partial curve].
Take `COc1ccc(NC(=O)c2c(NCc3cccc(F)c3)sc3c2CCCC3)c(OC)c1`: the AC50 under setting [2] is 35.5 µM [falling, single point] and the AC50 under setting [1] was 22.4 µM [rising, single point].
Take `O=C(NCc1ccccc1)C1CCN(S(=O)(=O)c2ccc3[nH]c(=O)ccc3c2)CC1`: the AC50 under setting [1] is 0.0891 µM [falling, full curve, poor fit].
Still for that read-out and setting: next, `Cc1cccc(N(C)S(=O)(=O)c2c(C(=O)N3CCCCCC3)c(C)n(C)c2C)c1`: 0.00316 µM [falling, full curve, poor fit]; `COc1cc(OC)cc(C(=O)NCC(=O)OCC(=O)Nc2ccc3c(c2)OCO3)c1`: 12.6 µM [rising, partial curve, poor fit].
In the case of `N/C(=N\OC(=O)Cc1ccc(-c2ccccc2)cc1)c1ccccn1`, the AC50 under setting [2] was 35.5 µM [rising, single point] and the AC50 under setting [1] is 14.1 µM [rising, single point].
As to `Cc1nc(Oc2ccccc2)c2ccccc2n1`, the AC50 under setting [1] is 22.4 µM [rising, single point].
`Cc1cc(N2CCN(S(=O)(=O)c3ccc4c(c3)OCCO4)CC2)n2ncnc2n1`: the AC50 by setting is: under setting [2], 22.4 µM [rising, partial curve, poor fit]; under setting [1], 22.4 µM [rising, single point].
With `O=c1c(-c2cccc(Cl)c2)nc2cncnc2n1Cc1ccccc1`, the AC50 under setting [2] was 0.501 µM [falling, full curve, poor fit].
With `Cc1cnc(C(=O)Nc2ccc(S(=O)(=O)NCC(C)C)cc2)cn1`, the concentration at half-maximal activity (AC50) under setting [1] is 0.00501 µM [falling, full curve, poor fit].
With `Cc1ccccc1-c1nnc(SCc2ccccc2F)o1`, under setting [2], the AC50 is 11.2 µM [rising, partial curve, poor fit].
Take `O=C(c1noc2c1CCCC2)N1CCN(Cc2ccccc2)CC1`: the AC50 under setting [1] is 11.2 µM [rising, single point].
Regarding `COc1cc(N2CCCC2)ccc1[N+](=O)[O-]`, the AC50 was 0.0794 µM [falling, full curve, poor fit] under setting [2] and 0.0316 µM [falling, full curve, poor fit] under setting [1].
Take `CN1CCN(c2cc(N3CCc4ccccc4C3)c(F)cc2[N+](=O)[O-])CC1`: the AC50 under setting [2] was 12.6 µM [rising, single point] and the half-maximal activity concentration (AC50) under setting [1] was 12.6 µM [rising, partial curve].
As to `COc1ccccc1OCCCCOc1ccccc1C(C)=O`, the AC50 under setting [1] is 17.8 µM [rising, partial curve].
For `O=C(O)c1cc2cc(F)ccc2[nH]1`, the AC50 under setting [1] is 1.41 µM [rising, partial curve].
Take `O=C(NNc1nc2c(F)cc(F)cc2s1)c1ccccc1`: the AC50 under setting [1] was 5.01 µM [rising, partial curve, poor fit].
Consider `CCCCCCCCCCCC(=O)[O][Sn]([CH2]CCC)([CH2]CCC)[O]C(=O)CCCCCCCCCCC`, for which the AC50 under setting [2] is 0.002 µM [falling, full curve, poor fit].
The same measure, in the same setting: next, `O=C(c1cccnc1)N1CCN(c2ccc(Cl)cc2)CC1`: 35.5 µM [rising, single point].
As for `Oc1ccc(C(=S)N2CCN(c3cccc(Cl)c3)CC2)cc1`, under setting [1], the AC50 is 12.6 µM [rising, partial curve].
Consider `CN(C)c1ccc(C(=O)NC2CCCc3ccccc32)cc1` (stereo unspecified), for which the AC50 under setting [2] was 0.0355 µM [falling, full curve, poor fit].
Turning to `Cn1cc(CN2CCN(c3ccccc3)CC2)c2ccccc21`, under setting [1], the AC50 was 10 µM [rising, partial curve, poor fit].
With `COc1ccccc1CNC(=O)c1ccc(N2CCCC2)c(NC(=O)NCc2ccc(F)cc2)c1`, the AC50 runs as follows: under setting [2], 31.6 µM [falling, single point]; under setting [1], 35.5 µM [falling, single point].
In the case of `CCCCN(CC)Cc1ccc(CNC(=S)Nc2cccc(F)c2)o1`, the AC50 under setting [2] is 28.2 µM [falling, partial curve, poor fit] and the AC50 under setting [1] is 1.12 µM [falling, full curve, poor fit].
Regarding `CNc1nc(N)c([N+](=O)[O-])c(NCc2ccccc2)n1`, the AC50 under setting [1] was 35.5 µM [falling, partial curve, poor fit].
With `Cc1csc(SCC(=O)NCCc2ccc(Cl)cc2)n1`, the AC50 under setting [2] was 12.6 µM [rising, partial curve].
As for `N#Cc1c(NCc2ccccc2)ccnc1NCc1cccnc1`, the AC50 under setting [1] was 6.31 µM [rising, full curve].
As to `COc1ccccc1CCNCc1ccc(OC)c(OCc2ccccc2)c1`, under setting [1], the AC50 is 15.8 µM [rising, partial curve].
Same read-out and setting: as for `Cc1ccc(N2C(=O)CC2(C#N)c2ccc(OCc3ccccc3)cc2)cc1` (stereo unspecified), the figure is 12.6 µM [rising, single point]; as for `COC(=O)c1ccc(C)c(NC(=O)Cc2coc3cc(OC)ccc23)c1`, 35.5 µM [rising, single point].
Regarding `O=S(=O)(NCC(c1ccco1)N1CCOCC1)c1ccc(F)cc1` (stereo unspecified), the AC50 under setting [2] was 14.1 µM [rising, single point].
With `Cc1ccc(NC(=O)CSc2nc(N)c3c4c(sc3n2)CSC(C)(C)C4)cc1`, under setting [1], the AC50 is 35.5 µM [rising, single point].
Take `O=c1c2c(-c3ccco3)csc2nc(SCc2cn3cccnc3n2)n1-c1ccccc1`: the AC50 under setting [1] was 14.1 µM [rising, single point].
Consider `CC(=O)Nc1nn(C)c2nc3cc(C)ccc3cc12`, for which the AC50 under setting [1] was 0.00447 µM [rising, full curve, poor fit].
In the case of `O=C(Nc1cccc(S(=O)(=O)C(F)F)c1)c1ccc(S(=O)(=O)N2CCCCC2)cc1`, the AC50 under setting [2] is 22.4 µM [falling, single point].
As for `CN1CCN(CCCNC(=O)c2ccc(/C=C3/Sc4ccccc4N(Cc4cccc(Cl)c4)C3=O)cc2)CC1`, the AC50 was 15.8 µM [falling, single point] under setting [2] and 25.1 µM [falling, partial curve] under setting [1].
Turning to `COc1ccc(N2CCN(C(=O)CSc3nnc(-c4ccco4)n3C)CC2)cc1`, the AC50 was 17.8 µM [falling, single point] under setting [2] and 35.5 µM [falling, single point] under setting [1].
As to `COc1cc(C(=O)Nc2ccc(Br)cc2C(=O)c2cc(OC)c(OC)c(OC)c2)cc(OC)c1OC`, under setting [1], the AC50 was 35.5 µM [rising, single point].
